Test results as given in paper PMC12160926.
These are yes or no findings as the source states them, for the method shown. Binding seen in cells or lysates may run through a third protein. Some results given as binding are weak or reduced against the parent protein; the word gives no strength.

The chains behind the UniProt entries cited, without tags or fusion partners.
UniProt Q969Q1: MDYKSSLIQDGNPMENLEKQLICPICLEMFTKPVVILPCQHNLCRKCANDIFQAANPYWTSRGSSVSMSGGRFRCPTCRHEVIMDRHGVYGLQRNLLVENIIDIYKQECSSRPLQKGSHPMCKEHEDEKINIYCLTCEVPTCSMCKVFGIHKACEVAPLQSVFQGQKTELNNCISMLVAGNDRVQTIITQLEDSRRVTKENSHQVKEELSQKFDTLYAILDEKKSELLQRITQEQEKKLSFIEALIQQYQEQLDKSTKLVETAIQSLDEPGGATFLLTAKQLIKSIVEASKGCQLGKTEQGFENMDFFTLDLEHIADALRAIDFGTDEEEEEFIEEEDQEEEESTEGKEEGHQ

Columns and labels:
[1] = biological target: ATPB (human (endogenous in HK2)) (UniProt P06576); test: co-IP; HK2 cells co-expressing FLAG-Ub, with HKDC1 knock-down or HKDC1 overexpression, with or without MG132; interaction of ATPB and Murf1 read by blot
[2] = biological target: T1, hexokinase domain-containing 1 (HKDC1) (human (endogenous in HK2)) (UniProt Q2TB90); test: co-IP; lead acetate-treated HK2 cells; anti-HKDC1 antibody and magnetic beads, overnight incubation; immunoblotting; rabbit and mouse IgG as negative controls
T1 sequence: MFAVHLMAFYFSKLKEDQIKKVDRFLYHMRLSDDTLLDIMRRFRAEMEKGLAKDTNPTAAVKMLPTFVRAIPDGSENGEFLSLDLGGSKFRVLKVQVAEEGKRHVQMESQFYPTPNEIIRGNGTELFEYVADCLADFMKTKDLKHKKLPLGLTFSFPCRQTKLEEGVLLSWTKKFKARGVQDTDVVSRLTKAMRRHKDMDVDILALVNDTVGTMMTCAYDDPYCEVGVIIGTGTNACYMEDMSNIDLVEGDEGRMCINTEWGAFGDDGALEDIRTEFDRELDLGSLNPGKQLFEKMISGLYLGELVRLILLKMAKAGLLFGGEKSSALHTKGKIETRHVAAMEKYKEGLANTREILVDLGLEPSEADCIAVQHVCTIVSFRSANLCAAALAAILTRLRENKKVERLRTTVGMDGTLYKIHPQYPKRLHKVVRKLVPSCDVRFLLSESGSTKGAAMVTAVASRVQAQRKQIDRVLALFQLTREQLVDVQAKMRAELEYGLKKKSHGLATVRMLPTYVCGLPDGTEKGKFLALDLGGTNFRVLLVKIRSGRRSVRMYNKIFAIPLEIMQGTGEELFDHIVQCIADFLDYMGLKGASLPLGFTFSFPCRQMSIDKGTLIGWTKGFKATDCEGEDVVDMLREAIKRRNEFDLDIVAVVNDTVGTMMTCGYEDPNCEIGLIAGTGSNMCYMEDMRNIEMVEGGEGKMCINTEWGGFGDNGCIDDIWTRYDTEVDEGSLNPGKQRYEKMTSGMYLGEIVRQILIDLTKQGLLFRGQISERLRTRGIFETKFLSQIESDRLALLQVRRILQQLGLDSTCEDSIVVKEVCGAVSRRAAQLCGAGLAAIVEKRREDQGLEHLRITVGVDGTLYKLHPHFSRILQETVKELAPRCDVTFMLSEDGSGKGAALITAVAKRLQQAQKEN

Substance	binding [1]	binding [2]
E3 ligase Murf1 (from UniProt Q969Q1 1-353) (enzyme)	binds	
ATPB (from UniProt P06576 48-529)		binds
